# No constants are given. Whether binding was seen depends on the method and setting. In cells and extracts the contact can be indirect. Some results given as binding are weak or reduced against the parent protein; the word gives no strength. Tags and fused reporters may be left off the sequences shown.
# T1: GFP–NDE1–SSSC (in vitro transcribed and translated) (human) (UniProt Q9NXR1)
# T1 sequence: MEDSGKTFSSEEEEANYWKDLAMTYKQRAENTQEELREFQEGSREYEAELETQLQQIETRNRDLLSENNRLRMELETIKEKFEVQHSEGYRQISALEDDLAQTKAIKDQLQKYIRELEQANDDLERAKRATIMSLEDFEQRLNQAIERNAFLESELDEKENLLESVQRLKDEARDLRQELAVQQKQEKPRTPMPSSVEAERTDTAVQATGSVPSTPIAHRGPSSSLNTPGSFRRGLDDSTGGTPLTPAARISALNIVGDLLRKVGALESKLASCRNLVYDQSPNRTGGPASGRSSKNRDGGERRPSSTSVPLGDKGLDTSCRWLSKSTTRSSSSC
# T2: V5–NDE1–SSSC (human) (UniProt Q9NXR1)
# T2 sequence: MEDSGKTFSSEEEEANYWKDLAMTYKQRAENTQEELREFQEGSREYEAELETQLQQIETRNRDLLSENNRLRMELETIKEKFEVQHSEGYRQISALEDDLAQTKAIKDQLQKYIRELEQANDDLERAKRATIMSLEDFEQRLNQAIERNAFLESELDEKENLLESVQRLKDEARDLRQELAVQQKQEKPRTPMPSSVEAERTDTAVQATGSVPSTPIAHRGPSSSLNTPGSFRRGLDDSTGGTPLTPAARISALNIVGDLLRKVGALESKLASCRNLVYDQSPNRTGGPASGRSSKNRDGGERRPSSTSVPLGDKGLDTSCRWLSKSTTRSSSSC
# T3: V5–NDE1–SSSC (in vitro transcribed and translated) (human) (UniProt Q9NXR1)
# T3 sequence: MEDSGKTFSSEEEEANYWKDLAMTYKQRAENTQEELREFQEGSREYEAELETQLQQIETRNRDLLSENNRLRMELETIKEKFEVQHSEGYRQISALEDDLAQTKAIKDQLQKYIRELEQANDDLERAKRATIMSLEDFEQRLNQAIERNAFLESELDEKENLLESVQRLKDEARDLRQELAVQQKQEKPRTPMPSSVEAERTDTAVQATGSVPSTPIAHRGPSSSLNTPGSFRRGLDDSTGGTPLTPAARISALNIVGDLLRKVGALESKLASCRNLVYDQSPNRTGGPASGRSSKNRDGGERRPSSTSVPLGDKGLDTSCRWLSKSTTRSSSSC
# T4: FLAG–DISC1 (UniProt Q9NRI5)
# T4 sequence: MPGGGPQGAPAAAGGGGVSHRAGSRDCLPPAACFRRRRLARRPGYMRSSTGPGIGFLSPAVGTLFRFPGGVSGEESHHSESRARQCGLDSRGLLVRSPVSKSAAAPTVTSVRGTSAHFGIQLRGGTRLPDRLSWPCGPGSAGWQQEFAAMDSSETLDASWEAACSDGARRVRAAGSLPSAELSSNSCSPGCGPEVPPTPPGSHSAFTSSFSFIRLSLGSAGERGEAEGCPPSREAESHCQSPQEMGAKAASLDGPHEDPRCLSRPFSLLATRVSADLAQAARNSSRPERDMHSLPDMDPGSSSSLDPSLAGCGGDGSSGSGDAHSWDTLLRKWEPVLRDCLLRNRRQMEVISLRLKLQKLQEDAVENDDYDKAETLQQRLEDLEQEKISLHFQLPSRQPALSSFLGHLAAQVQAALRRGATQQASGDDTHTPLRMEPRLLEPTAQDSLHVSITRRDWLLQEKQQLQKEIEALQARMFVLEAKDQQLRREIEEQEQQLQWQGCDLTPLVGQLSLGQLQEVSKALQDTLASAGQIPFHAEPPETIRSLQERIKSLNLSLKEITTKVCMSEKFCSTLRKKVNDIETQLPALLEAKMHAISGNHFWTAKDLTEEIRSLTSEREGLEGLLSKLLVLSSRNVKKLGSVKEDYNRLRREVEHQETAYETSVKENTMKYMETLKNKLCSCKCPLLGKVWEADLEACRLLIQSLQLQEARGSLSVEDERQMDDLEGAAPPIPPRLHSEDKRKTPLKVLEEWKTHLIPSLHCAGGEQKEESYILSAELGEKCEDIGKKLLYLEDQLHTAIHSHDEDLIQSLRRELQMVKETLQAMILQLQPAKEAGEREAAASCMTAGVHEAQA
# How the values were obtained:
# [1] = target: T1, GFP–NDE1–SSSC (in vitro transcribed and translated) (human); assay: co-IP; both proteins in vitro transcribed and translated; immunoprecipitation by the tag; control without the bait
# [2] = target: T2, V5–NDE1–SSSC (human); assay: co-IP; tagged proteins (V5, GFP, FLAG) over-expressed in transfected COS7 cells; immunoprecipitation by the tag from cell lysates; Western blot
# [3] = target: T3, V5–NDE1–SSSC (in vitro transcribed and translated) (human); assay: co-IP; both proteins in vitro transcribed and translated; immunoprecipitation by the tag; control without the bait
# [4] = target: T4, FLAG–DISC1; assay: co-IP; tagged proteins (V5, GFP, FLAG) over-expressed in transfected COS7 cells; immunoprecipitation by the tag from cell lysates; Western blot
binder,measurement,setting,value
"V5–DISC1 (in vitro transcribed and translated) (protein, UniProt Q9NRI5 1-854) MPGGGPQGAPAAAGGGGVSHRAGSRDCLPPAACFRRRRLARRPGYMRSSTGPGIGFLSPAVGTLFRFPGGVSGEESHHSESRARQCGLDSRGLLVRSPVSKSAAAPTVTSVRGTSAHFGIQLRGGTRLPDRLSWPCGPGSAGWQQEFAAMDSSETLDASWEAACSDGARRVRAAGSLPSAELSSNSCSPGCGPEVPPTPPGSHSAFTSSFSFIRLSLGSAGERGEAEGCPPSREAESHCQSPQEMGAKAASLDGPHEDPRCLSRPFSLLATRVSADLAQAARNSSRPERDMHSLPDMDPGSSSSLDPSLAGCGGDGSSGSGDAHSWDTLLRKWEPVLRDCLLRNRRQMEVISLRLKLQKLQEDAVENDDYDKAETLQQRLEDLEQEKISLHFQLPSRQPALSSFLGHLAAQVQAALRRGATQQASGDDTHTPLRMEPRLLEPTAQDSLHVSITRRDWLLQEKQQLQKEIEALQARMFVLEAKDQQLRREIEEQEQQLQWQGCDLTPLVGQLSLGQLQEVSKALQDTLASAGQIPFHAEPPETIRSLQERIKSLNLSLKEITTKVCMSEKFCSTLRKKVNDIETQLPALLEAKMHAISGNHFWTAKDLTEEIRSLTSEREGLEGLLSKLLVLSSRNVKKLGSVKEDYNRLRREVEHQETAYETSVKENTMKYMETLKNKLCSCKCPLLGKVWEADLEACRLLIQSLQLQEARGSLSVEDERQMDDLEGAAPPIPPRLHSEDKRKTPLKVLEEWKTHLIPSLHCAGGEQKEESYILSAELGEKCEDIGKKLLYLEDQLHTAIHSHDEDLIQSLRRELQMVKETLQAMILQLQPAKEAGEREAAASCMTAGVHEAQA",binding,[1],binds
"GFP–NDE1–SSSC (protein, UniProt Q9NXR1 1-335) MEDSGKTFSSEEEEANYWKDLAMTYKQRAENTQEELREFQEGSREYEAELETQLQQIETRNRDLLSENNRLRMELETIKEKFEVQHSEGYRQISALEDDLAQTKAIKDQLQKYIRELEQANDDLERAKRATIMSLEDFEQRLNQAIERNAFLESELDEKENLLESVQRLKDEARDLRQELAVQQKQEKPRTPMPSSVEAERTDTAVQATGSVPSTPIAHRGPSSSLNTPGSFRRGLDDSTGGTPLTPAARISALNIVGDLLRKVGALESKLASCRNLVYDQSPNRTGGPASGRSSKNRDGGERRPSSTSVPLGDKGLDTSCRWLSKSTTRSSSSC",binding,[2],binds
"GFP–NDE1–SSSC (in vitro transcribed and translated) (protein, UniProt Q9NXR1 1-335) MEDSGKTFSSEEEEANYWKDLAMTYKQRAENTQEELREFQEGSREYEAELETQLQQIETRNRDLLSENNRLRMELETIKEKFEVQHSEGYRQISALEDDLAQTKAIKDQLQKYIRELEQANDDLERAKRATIMSLEDFEQRLNQAIERNAFLESELDEKENLLESVQRLKDEARDLRQELAVQQKQEKPRTPMPSSVEAERTDTAVQATGSVPSTPIAHRGPSSSLNTPGSFRRGLDDSTGGTPLTPAARISALNIVGDLLRKVGALESKLASCRNLVYDQSPNRTGGPASGRSSKNRDGGERRPSSTSVPLGDKGLDTSCRWLSKSTTRSSSSC",binding,[3],binds
"V5–NDE1–SSSC (protein, UniProt Q9NXR1 1-335) MEDSGKTFSSEEEEANYWKDLAMTYKQRAENTQEELREFQEGSREYEAELETQLQQIETRNRDLLSENNRLRMELETIKEKFEVQHSEGYRQISALEDDLAQTKAIKDQLQKYIRELEQANDDLERAKRATIMSLEDFEQRLNQAIERNAFLESELDEKENLLESVQRLKDEARDLRQELAVQQKQEKPRTPMPSSVEAERTDTAVQATGSVPSTPIAHRGPSSSLNTPGSFRRGLDDSTGGTPLTPAARISALNIVGDLLRKVGALESKLASCRNLVYDQSPNRTGGPASGRSSKNRDGGERRPSSTSVPLGDKGLDTSCRWLSKSTTRSSSSC",binding,[4],binds

# Reference: paper PMC2631193
